{
  "sequences": {"note": "Protein sequences, listed by entry. Tags and fused reporters are not part of them.", "UniProt Q04781": "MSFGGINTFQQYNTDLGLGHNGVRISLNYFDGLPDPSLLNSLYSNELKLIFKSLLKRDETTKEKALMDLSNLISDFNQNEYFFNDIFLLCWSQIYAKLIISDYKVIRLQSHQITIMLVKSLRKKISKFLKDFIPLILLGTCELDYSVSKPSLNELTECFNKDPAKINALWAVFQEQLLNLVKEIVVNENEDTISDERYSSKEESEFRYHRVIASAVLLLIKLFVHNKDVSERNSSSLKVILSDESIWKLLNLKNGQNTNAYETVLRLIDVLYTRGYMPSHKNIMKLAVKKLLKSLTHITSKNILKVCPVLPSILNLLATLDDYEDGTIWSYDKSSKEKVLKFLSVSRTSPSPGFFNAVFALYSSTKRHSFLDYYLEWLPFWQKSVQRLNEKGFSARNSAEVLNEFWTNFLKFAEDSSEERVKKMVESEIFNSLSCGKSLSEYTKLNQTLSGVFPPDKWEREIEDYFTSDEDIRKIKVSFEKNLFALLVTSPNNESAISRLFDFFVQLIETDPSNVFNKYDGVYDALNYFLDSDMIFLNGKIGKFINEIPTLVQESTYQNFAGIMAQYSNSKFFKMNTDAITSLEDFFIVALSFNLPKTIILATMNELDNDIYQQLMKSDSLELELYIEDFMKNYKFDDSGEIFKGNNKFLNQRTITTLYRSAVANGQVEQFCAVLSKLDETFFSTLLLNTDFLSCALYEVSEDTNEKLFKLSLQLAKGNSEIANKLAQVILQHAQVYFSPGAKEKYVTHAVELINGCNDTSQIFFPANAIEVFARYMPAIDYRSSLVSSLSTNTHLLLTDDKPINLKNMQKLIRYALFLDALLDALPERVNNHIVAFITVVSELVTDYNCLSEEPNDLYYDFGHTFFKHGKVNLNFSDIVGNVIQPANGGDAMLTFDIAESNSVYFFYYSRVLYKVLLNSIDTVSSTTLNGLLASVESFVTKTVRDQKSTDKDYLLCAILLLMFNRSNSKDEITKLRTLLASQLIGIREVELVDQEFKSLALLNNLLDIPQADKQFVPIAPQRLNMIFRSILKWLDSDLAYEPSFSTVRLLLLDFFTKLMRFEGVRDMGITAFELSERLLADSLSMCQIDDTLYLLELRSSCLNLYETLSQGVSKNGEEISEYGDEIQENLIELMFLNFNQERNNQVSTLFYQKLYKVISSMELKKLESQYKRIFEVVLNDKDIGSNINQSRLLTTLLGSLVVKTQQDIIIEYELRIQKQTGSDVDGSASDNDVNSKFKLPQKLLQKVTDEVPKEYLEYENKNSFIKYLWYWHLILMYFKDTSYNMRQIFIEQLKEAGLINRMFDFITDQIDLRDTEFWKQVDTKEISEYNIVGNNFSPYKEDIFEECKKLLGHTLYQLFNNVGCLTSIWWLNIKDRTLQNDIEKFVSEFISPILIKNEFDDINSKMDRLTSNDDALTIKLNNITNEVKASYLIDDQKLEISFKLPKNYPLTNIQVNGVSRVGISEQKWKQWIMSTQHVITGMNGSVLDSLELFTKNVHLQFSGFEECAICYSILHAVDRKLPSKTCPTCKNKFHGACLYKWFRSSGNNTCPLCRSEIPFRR", "UniProt Q12532": "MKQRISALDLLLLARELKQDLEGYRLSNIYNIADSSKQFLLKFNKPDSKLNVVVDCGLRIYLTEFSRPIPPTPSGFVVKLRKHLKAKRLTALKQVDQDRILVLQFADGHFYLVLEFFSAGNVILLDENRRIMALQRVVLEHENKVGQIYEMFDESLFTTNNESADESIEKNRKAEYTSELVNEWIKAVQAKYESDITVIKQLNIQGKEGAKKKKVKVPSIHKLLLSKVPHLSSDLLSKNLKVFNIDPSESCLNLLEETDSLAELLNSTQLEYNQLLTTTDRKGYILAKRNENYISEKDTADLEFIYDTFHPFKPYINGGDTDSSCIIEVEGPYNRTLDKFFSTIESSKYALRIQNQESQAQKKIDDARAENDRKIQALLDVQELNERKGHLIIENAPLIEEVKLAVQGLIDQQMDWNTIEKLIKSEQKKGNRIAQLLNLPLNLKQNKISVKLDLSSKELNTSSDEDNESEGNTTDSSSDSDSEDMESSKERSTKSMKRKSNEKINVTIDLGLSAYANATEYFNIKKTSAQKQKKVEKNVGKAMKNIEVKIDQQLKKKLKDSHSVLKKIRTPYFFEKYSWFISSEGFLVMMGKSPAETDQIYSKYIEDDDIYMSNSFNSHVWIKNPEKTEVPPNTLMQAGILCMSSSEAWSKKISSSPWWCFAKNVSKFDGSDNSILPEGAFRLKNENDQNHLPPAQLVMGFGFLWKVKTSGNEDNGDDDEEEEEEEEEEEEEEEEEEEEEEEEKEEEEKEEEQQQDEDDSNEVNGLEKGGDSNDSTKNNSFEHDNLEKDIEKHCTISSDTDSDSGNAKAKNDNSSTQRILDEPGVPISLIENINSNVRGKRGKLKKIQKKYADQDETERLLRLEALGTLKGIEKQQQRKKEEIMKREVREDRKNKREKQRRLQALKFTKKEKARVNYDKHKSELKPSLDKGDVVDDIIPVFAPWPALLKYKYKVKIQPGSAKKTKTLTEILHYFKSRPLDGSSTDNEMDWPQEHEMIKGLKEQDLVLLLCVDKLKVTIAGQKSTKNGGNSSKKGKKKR", "UniProt P25694": "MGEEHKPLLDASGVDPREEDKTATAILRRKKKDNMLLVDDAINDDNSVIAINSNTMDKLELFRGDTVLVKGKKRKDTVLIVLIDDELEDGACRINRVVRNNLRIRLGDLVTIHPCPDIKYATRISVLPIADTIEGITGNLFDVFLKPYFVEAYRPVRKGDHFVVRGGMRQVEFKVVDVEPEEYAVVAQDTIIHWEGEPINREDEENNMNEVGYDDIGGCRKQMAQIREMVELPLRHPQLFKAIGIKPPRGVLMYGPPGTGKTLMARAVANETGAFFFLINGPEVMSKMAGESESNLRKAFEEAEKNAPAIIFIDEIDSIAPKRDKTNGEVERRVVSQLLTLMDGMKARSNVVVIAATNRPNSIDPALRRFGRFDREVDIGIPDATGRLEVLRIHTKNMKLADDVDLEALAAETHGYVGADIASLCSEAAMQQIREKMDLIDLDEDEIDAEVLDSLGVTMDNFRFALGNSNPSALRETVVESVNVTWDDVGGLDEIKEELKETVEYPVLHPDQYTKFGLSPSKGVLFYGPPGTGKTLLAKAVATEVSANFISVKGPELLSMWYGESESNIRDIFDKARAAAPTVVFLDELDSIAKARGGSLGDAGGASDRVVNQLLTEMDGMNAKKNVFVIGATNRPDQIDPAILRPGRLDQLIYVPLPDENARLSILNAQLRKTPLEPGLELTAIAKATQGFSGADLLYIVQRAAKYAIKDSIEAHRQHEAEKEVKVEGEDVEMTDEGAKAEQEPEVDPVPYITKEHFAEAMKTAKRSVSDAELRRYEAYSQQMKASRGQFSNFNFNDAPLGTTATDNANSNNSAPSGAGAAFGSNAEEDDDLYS"},
  "source": "paper PMC5989216",
  "key": {"[1]": {"target": "Ltn1p-HA (S. cerevisiae) (UniProt Q04781)", "assay": "co-IP; anti-HA magnetic beads; lysate of the cognate double mutant yeast strain co-expressing Vms1p-V5 (or VMS1 mutant) and a His6-HA2 tagged RQC component; IP buffer 20 mM Tris pH 7.4, 50 mM NaCl, 0.2% Triton X-100; 4 h incubation; immunoblot of HA and V5"}, "[2]": {"target": "T1, Rqc1p-HA (S. cerevisiae) (UniProt Q05468)", "T1 sequence": "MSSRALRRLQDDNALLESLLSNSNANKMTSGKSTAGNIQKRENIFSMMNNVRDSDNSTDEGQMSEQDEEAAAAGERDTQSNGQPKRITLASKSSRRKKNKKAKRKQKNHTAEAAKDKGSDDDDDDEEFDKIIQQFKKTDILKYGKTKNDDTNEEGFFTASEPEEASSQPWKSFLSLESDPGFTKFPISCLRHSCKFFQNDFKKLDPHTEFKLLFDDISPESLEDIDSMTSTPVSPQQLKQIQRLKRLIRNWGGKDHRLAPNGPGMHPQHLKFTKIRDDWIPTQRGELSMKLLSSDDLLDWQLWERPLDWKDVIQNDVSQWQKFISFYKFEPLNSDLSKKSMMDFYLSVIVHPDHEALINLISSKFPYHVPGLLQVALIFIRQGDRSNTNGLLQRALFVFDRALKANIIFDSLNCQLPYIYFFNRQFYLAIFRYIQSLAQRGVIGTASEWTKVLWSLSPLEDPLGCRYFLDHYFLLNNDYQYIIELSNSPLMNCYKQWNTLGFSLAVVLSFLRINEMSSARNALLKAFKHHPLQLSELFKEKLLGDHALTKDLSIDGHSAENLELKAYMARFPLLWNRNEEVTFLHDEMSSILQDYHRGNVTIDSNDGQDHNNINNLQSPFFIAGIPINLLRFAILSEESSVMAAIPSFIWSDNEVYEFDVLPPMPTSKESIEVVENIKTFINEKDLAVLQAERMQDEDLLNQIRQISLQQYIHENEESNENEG", "assay": "co-IP; anti-HA magnetic beads; lysate of the cognate double mutant yeast strain co-expressing Vms1p-V5 (or VMS1 mutant) and a His6-HA2 tagged RQC component; IP buffer 20 mM Tris pH 7.4, 50 mM NaCl, 0.2% Triton X-100; 4 h incubation; immunoblot of HA and V5"}, "[3]": {"target": "Rqc2p-HA (S. cerevisiae) (UniProt Q12532)", "assay": "co-IP; anti-HA magnetic beads; lysate of the cognate double mutant yeast strain co-expressing Vms1p-V5 (or VMS1 mutant) and a His6-HA2 tagged RQC component; IP buffer 20 mM Tris pH 7.4, 50 mM NaCl, 0.2% Triton X-100; 4 h incubation; immunoblot of HA and V5"}, "[4]": {"target": "Cdc48p (S. cerevisiae) (UniProt P25694)", "assay": "co-IP; Supplementary Fig. 3e; who was precipitated and how Cdc48p was detected is not given"}},
  "note": "No constants are given. Whether binding was seen depends on the method and setting. In cells and extracts the contact can be indirect. Some entries that bind do so weakly or less than the wild type. For some of these results: Tags and fused reporters may be left off the sequences shown.",
  "data": [
    {"binder": "Vms1p-V5 (protein, UniProt Q04311 1-632) MNSQKASKMTGSLKKNDLYIFDLSEQLLNSLKLMSFDSTLREVEVEKTSDNDRNKESGDLQIARKKVTSNVMRCSVCQMSFDSRNEQKAHYQTDYHLMNVKRNLRGLDILSVEEFDALISKEHGIKSEDENSGGEQTSSDHEESEEASDRDPDLQTNNYMETIIENDLQKLGFQKDESDAISHINTQSPYIYFKSKYLQKNEVLAIYKSLFNKRSLSNPNEALTFWNSQENPMAISALFMVGGGHFAGAIVSHQRLNVKGNAHKKDETLIEQAVNFLEHKTFHRYTTRRKQGGSQSAMDNAKGKANSAGSALRRYNESALKTDIQGVLKDWEPYLSKCDNIFIRARNVSDKKIFTDNTVLNKGDERIKSFPFTTNRPTVLELKKAWCELSYLKILPKPEPLAVKETVQKLEVSNKKDEFKEKQEPLLEEIQTEEIISLLKKGRAPLLISFLKKNKLDGNFRLKPESKYSLTPTMLHYASQQGMKQMALILLSNIKCDPTIKNRLGRTAWDLNRNDDVRHAFQIARYNLGESFTNWDETHIGQPLSREQVDEINEKKKAIENEKAEKLIKLELEAAKEKQRFAKDAERGPGKKLTNIPSIQQQNLNSLTDEQRRRLMREQRARAAEERMKKKY", "values": [
      {"measurement": "binding", "setting": "[1]", "value": "binds weakly"},
      {"measurement": "binding", "setting": "[2]", "value": "binds weakly"},
      {"measurement": "binding", "setting": "[3]", "value": "binds"}
    ]},
    {"binder": "Vms1p 1–417 truncation mutant (domain or fragment, UniProt Q04311 1-417) MNSQKASKMTGSLKKNDLYIFDLSEQLLNSLKLMSFDSTLREVEVEKTSDNDRNKESGDLQIARKKVTSNVMRCSVCQMSFDSRNEQKAHYQTDYHLMNVKRNLRGLDILSVEEFDALISKEHGIKSEDENSGGEQTSSDHEESEEASDRDPDLQTNNYMETIIENDLQKLGFQKDESDAISHINTQSPYIYFKSKYLQKNEVLAIYKSLFNKRSLSNPNEALTFWNSQENPMAISALFMVGGGHFAGAIVSHQRLNVKGNAHKKDETLIEQAVNFLEHKTFHRYTTRRKQGGSQSAMDNAKGKANSAGSALRRYNESALKTDIQGVLKDWEPYLSKCDNIFIRARNVSDKKIFTDNTVLNKGDERIKSFPFTTNRPTVLELKKAWCELSYLKILPKPEPLAVKETVQKLEVSNKKD", "values": [
      {"measurement": "binding", "setting": "[4]", "value": "no binding"}
    ]}
  ]
}
